Measurements published in PMC2680019.
These are yes or no findings as the source states them, for the method shown. Binding seen in cells or lysates may run through a third protein. For some assays here: Binding can be weak; no strength is given. For some assays here: Tags and fused reporters may be left off the sequences shown.

Protein sequences, listed by entry. Tags and fused reporters are not part of them. Lines headed by an entry give the natural chain unless they say otherwise; changes in a name come on top. Chains listed by the source or under a name are the forms on record and can include a tag or linker. Residues count along the entry.
UniProt Q8IZW8: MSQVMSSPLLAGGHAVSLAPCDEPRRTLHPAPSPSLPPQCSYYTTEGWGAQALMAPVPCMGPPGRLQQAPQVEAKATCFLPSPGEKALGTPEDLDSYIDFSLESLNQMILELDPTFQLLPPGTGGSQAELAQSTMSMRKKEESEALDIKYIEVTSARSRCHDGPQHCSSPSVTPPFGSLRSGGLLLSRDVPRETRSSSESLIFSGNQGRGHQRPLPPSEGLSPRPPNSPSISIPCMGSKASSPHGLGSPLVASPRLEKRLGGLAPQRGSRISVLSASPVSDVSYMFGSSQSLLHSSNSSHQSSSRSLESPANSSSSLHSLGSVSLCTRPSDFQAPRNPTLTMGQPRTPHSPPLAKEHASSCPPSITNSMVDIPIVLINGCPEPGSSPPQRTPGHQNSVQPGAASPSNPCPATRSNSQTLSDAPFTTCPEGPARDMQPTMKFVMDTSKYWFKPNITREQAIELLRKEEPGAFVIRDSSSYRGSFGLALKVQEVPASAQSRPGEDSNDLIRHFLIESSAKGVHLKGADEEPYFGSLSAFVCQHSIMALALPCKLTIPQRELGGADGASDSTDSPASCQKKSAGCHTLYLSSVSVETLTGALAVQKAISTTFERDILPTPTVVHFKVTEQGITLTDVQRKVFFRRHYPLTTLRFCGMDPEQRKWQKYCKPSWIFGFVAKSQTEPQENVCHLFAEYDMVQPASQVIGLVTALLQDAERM
UniProt Q9HBL0: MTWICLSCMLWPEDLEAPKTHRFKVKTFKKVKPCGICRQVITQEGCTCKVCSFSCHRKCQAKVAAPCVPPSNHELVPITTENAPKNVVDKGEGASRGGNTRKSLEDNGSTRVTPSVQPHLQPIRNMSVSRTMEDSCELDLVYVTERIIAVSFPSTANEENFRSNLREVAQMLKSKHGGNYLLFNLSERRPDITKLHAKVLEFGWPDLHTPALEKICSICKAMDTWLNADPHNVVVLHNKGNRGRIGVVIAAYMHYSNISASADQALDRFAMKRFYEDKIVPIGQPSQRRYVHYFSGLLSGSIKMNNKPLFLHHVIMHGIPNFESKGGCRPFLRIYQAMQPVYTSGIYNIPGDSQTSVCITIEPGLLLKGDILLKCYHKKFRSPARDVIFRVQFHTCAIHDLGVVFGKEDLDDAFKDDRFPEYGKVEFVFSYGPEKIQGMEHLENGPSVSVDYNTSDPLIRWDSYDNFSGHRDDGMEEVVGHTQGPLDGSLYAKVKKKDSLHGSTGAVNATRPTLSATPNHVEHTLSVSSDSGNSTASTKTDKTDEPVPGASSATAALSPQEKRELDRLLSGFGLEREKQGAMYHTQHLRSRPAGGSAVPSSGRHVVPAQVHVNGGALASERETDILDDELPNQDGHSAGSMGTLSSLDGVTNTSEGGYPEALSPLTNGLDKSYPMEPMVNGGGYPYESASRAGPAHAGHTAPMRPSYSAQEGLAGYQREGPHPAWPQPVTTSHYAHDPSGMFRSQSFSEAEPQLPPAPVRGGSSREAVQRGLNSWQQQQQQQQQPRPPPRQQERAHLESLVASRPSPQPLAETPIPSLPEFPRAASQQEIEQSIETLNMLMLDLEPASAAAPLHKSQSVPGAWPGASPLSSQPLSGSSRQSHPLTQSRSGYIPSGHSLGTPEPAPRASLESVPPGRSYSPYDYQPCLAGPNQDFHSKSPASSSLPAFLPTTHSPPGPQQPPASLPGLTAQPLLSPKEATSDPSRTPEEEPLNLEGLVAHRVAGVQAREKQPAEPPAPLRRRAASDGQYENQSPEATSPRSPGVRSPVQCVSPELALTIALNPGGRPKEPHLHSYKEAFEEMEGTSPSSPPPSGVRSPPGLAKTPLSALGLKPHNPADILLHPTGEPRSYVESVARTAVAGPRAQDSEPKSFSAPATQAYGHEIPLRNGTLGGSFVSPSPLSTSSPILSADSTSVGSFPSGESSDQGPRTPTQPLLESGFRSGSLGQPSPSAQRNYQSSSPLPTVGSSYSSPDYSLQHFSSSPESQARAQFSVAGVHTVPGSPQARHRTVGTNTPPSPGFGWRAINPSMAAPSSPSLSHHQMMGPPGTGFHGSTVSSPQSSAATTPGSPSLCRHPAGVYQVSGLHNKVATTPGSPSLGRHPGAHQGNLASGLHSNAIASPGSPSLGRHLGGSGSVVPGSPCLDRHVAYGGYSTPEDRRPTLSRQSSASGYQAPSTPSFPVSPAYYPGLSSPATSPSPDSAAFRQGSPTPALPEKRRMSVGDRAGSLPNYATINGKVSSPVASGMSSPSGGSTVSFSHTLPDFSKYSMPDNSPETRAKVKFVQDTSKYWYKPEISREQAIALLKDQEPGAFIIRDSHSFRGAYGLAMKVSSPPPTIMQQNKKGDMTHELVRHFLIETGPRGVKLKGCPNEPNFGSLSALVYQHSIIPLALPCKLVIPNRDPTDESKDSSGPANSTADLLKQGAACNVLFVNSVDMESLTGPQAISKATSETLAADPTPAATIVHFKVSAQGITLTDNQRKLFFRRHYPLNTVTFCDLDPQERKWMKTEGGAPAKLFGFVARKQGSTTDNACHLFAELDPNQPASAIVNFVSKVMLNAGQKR
Myc-tagged tensin1 N-terminus fragment 1-1186: residues 1-1186 of Q9HBL0
Myc-tagged tensin1 C-terminus 648-stop: residues 648-1839 of Q9HBL0

Columns and labels:
Experiment in all cases: co-IP; HEK293T co-transfected with Myc-tagged tensin and FLAG-tagged DLC1 (or GFP-tagged DLC2); cleared lysate in NET-N buffer (25 mM Tris-HCl pH 8.0, 50 mM NaCl, 0.2 mM EDTA, 0.1% NP40); anti-Myc antibody overnight at 4°C, protein-A sepharose, 5 washes; blot with anti-FLAG (anti-GFP for DLC2)
[1] = target: Myc-tagged C-terminal tensin-like (cten) (UniProt Q8IZW8)
[2] = target: T1, Myc-tagged Tensin2 1-1021 (ΔSH2ΔPTB) (UniProt Q63HR2)
T1 sequence: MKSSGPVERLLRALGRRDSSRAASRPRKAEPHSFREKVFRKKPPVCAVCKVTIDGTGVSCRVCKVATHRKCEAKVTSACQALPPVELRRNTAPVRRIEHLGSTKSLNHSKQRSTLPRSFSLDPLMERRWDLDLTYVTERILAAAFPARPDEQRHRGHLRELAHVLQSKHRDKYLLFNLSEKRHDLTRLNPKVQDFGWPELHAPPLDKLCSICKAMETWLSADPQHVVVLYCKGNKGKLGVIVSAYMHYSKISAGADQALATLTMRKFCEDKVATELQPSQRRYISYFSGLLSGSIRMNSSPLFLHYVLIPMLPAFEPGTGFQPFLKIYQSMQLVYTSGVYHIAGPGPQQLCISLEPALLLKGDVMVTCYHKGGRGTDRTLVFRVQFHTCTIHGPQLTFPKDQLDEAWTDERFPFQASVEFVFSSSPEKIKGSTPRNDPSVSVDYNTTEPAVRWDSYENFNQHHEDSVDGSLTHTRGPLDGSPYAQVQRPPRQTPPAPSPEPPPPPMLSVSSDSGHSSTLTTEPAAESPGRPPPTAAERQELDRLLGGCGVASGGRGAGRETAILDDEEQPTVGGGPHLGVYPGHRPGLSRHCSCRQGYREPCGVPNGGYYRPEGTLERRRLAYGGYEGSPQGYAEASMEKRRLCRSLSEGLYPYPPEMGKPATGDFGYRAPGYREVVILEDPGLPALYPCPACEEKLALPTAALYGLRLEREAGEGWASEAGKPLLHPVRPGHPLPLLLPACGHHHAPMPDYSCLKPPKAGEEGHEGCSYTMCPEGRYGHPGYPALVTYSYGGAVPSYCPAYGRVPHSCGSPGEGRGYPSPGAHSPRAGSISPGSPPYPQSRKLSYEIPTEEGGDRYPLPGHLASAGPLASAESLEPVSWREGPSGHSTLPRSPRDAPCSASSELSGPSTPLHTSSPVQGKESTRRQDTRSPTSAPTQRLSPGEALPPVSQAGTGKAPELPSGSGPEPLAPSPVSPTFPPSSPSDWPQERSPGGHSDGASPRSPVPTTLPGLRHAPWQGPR

[3] = target: T2, Myc-tagged Tensin2 1135-1409 (SH2-PTB) (UniProt Q63HR2)
T2 sequence: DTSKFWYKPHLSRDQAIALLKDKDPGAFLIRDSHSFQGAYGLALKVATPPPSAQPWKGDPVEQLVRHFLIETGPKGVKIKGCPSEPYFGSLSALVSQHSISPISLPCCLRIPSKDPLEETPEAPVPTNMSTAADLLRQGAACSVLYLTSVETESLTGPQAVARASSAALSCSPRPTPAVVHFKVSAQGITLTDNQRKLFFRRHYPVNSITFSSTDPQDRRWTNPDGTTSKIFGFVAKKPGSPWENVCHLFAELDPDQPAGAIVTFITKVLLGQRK

[4] = target: Myc-tagged tensin1 C-terminus 648-stop (UniProt Q9HBL0)
[5] = target: Myc-tagged tensin1 N-terminus fragment 1-1186 (UniProt Q9HBL0)

binding [1]: binds | binding [2]: no binding | binding [3]: binds | binding [4]: binds | binding [5]: no binding
Substance: FLAG-tagged DLC1 FL (Deleted in liver cancer 1, wild-type) (from UniProt Q96QB1-1)
